According to PubChem BioAssay AID504834 (National Center for Advancing Translational Sciences (NCATS), 2011):
Screen size: about 320,000 compounds; about 22,000 (6.9%) were called active. The shares of active, inactive and inconclusive entries below differ from those in the screen. The call rests on the fitted dose curve; in most records, active means well fitted inhibition curve with a large enough effect; inconclusive means small, poorly fitted or top-dose-only effect, or another doubt; inactive means no such curve, though single readings can be large or run the other way. Potencies beside an inconclusive call are fits to weak or partial responses and may not hold up.

Experiment: Primary qHTS for delayed death inhibitors of the malarial parasite plastid, 96 hour incubation
Conditions: P. falciparum luciferase reporter growth; series mostly up to 28.7 µM; activity change, negative = inhibition: at the top concentration
Method in brief: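 Compounds incubated with erythrocytes infected by luciferase-expressing P. falciparum (2% hematocrit, 0.05% parasitemia final) for 96 hours, 37 C in 5% CO2. Growth inhibition scored as decreased luciferase luminescence.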
On the % scale 0 is the no-effect control and ±100 the full control effect; potency means the concentration at half of the fitted maximal effect.

SMILES	Potency	activity change, negative = inhibition
COC(=O)C1(C)NC(c2ccco2)C2C(=O)N(c3ccc(C)cc3)C(=O)C21 (stereo unspecified)	inconclusive: 10.4 µM [inhibitor, single point]	
Cc1c(S(=O)(=O)N2CC(C)CC(C)C2)c(=O)n(C)c(=O)n1C (stereo unspecified)		inactive: 17.7%
COc1ccc(C2C(C(=O)Nc3cccc(C)n3)c3ccccc3C(=O)N2C)cc1 (stereo unspecified)	active: 3.7 µM	
Cn1cc(/C=N/NC(N)=S)c2ccccc21	inconclusive: 11.7 µM [inhibitor, partial curve]	
Cc1ccc(NC(=O)COC(=O)c2oc3ccccc3c2C)cc1S(=O)(=O)N1CCOCC1	inconclusive: 18.5 µM [inhibitor, single point]	
CC(C)c1nc2cc(Cl)ccc2n(Cc2ccccc2)c1=O	inconclusive: 18.5 µM [inhibitor, single point]	
CCCCNS(=O)(=O)c1ccc2c(c1)oc(=O)n2CC(=O)OCC	inconclusive: 13.1 µM [inhibitor, partial curve, poor fit]	
CCC(C)N(C(=O)COC(=O)c1ccccc1SCC(=O)N1CCCC1)C1CCS(=O)(=O)C1 (stereo unspecified)		inactive: 2.45%
Cc1ccc(C(=O)OC/C(O)=C(\C#N)c2nc3ccccc3[nH]2)cc1S(=O)(=O)N1CCOCC1	inconclusive: 7.38 µM [inhibitor, single point]	
COc1ccc(CC(=O)N/N=C(\C)CC(=O)Nc2ccc3c(c2)OCCO3)cc1OC	inconclusive: 1.04 µM [inhibitor, full curve, poor fit]	
COCCN(C(=O)c1ccco1)C(C(=O)NC1CCCC1)c1cccs1 (stereo unspecified)	inconclusive: 5.86 µM [inhibitor, partial curve, poor fit]	
CNC(=O)C(NC(=O)CNC(=O)c1ccc(Cl)cc1)C(C)(C)C (stereo unspecified)		inactive: 29.6%
COc1ccc(C(=O)/C=C/c2ccccc2C(F)(F)F)cc1	inconclusive: 0.037 µM [inhibitor, full curve, poor fit]	
CCc1ccc(OCC(=O)N/N=C/c2ccc(OS(=O)(=O)c3ccc(C)cc3)c(OC)c2)cc1	inconclusive: 13.1 µM [inhibitor, single point]	
CC(=O)Nc1cccc(C(=O)N(CCc2ccccc2)Cc2ccccc2)c1	inconclusive: 10.4 µM [inhibitor, partial curve, poor fit]	
COC(=O)c1ccc(NC(=O)c2ccc(NC(=O)c3ccco3)cc2)cc1		inactive: -7.06%
CCc1cc2cc(C)c(C)cc2nc1SCC(=O)NNC(=O)c1ccco1	inconclusive: 18.5 µM [inhibitor, single point]	
CC(=O)N1CCSc2ccc(S(=O)(=O)NCCc3ccc(C)cc3)cc21	inconclusive: 1.85 µM [inhibitor, partial curve]	
Cc1ccc(C(=O)OCC(=O)c2c(N)n(C)c(=O)n(C)c2=O)cc1S(=O)(=O)N1CCCCC1	inconclusive: 11.7 µM [inhibitor, single point]	
Cc1c(C)n(CCN(C)C)c2ncnc(NCc3ccccc3)c12		inactive: 3.79%
COc1ccc(C(=O)C2CCCN(Cc3cccn3-c3ccccn3)C2)c(OC)c1 (stereo unspecified)	inconclusive: 3.29 µM [inhibitor, full curve, poor fit]	
O=C1c2ccccc2S(=O)(=O)c2cc(C(=O)N(c3ccccn3)c3ccccn3)ccc21		inactive: 0.994%

SMILES	Potency	activity change, negative = inhibition
COc1ccc(CCn2nnnc2C(C(C)C)N2CCN(c3ncccn3)CC2)cc1OC (stereo unspecified)	inconclusive: 18.5 µM [inhibitor, single point]	
O=C1CNC(=O)N1	inconclusive: 0.0026 µM [inhibitor, full curve, poor fit]	
CCn1cc(C(=O)N[C@H](C(=O)NCCCN2CCOCC2)C(C)C)c(=O)c2cc3c(cc21)OCO3		inactive: 17.8%
O=C(CN1CCCc2ccccc21)Nc1cc(S(=O)(=O)N2CCCC2)ccc1Cl	active: 8.28 µM	
Clc1cccc(Nc2nc(-c3ccncc3)nc3ccccc23)c1	active: 0.928 µM	
CN(C)S(=O)(=O)n1cc(/C=C(\NC(=O)c2ccccc2)C(=O)NCCN2CCOCC2)c2ccccc21	inconclusive: 9.28 µM [inhibitor, single point]	
COCCC(=O)N1CCC(Oc2ccc(C(=O)NCc3ncc(C)[nH]3)cc2)CC1	inconclusive: 10.4 µM [inhibitor, single point]	
CCN1CCc2nc3sc(C(=O)Nc4cccnc4Cl)c(N)c3cc2C1	inconclusive: 4.15 µM [inhibitor, single point]	
Cn1cccc1/C=C1\SC(=S)N(Nc2ccccc2)C1=O		inactive: 1.16%
CCCCCCn1c(O)c(C=NC2CCN(Cc3ccccc3)CC2)c(=O)[nH]c1=O	inconclusive: 18.5 µM [inhibitor, single point]	
CCOc1ccc(Cl)cc1CNCCCSc1ncccn1	active: 13.1 µM	
O=C1CSC(c2ccc(F)cc2)N1c1c(F)cccc1F (stereo unspecified)		inactive: 1.68%
COc1ccc(C(N)CCc2ccc(C)o2)cc1 (stereo unspecified)	inconclusive: 0.0037 µM [inhibitor, full curve, poor fit]	
COc1ccccc1Oc1ccc(S(=O)(=O)NCc2ccccn2)cc1	active: 10.4 µM	
Cc1ccc(C(C)n2cc(C(=O)NCCN3CCN(C)CC3)nn2)cc1 (stereo unspecified)	inconclusive: 11.7 µM [inhibitor, single point]	
CCOc1cc(C(=O)Nc2cc(C)ccc2OC)ccc1OCC(=O)N1CCCCC1	inconclusive: 18.5 µM [inhibitor, single point]	
Cc1ccc(Nc2nnc(SCC(=O)NCCN3C(=O)CSC3=O)s2)cc1		inactive: -23.1%
COc1cc(C(=O)OCCC(C)C)cc(OC)c1O	inconclusive: 18.5 µM [inhibitor, single point]	
O=C(N/N=C\c1cn(-c2ccccc2)nc1-c1ccccc1)c1ccc2c(c1)OCO2	active: 11.7 µM	
COC(=O)c1ccc(CNC(=O)N2CCN(S(=O)(=O)c3ccc(C)cc3)CC2)cc1	inconclusive: 4.15 µM [inhibitor, partial curve, poor fit]	
O=C1CN(C(=O)COc2ccc(F)cc2Cl)c2ccccc2N1	inconclusive: 0.0738 µM [inhibitor, full curve]	
CC(=O)Nc1ccc(C(=O)N/N=C/c2ccc(F)cc2)cc1	inconclusive: 18.5 µM [inhibitor, single point]	

SMILES	Potency	activity change, negative = inhibition
CCOC(=O)N1CCC(n2c(SCC(=O)NCc3ccco3)nc3ccsc3c2=O)CC1	inconclusive: 0.522 µM [inhibitor, full curve, poor fit]	
CC(C)Cc1nc(N2CCC(C(N)=O)CC2)c2nnn(Cc3ccccc3)c2n1	active: 10.4 µM	
Cc1sc2ncnc(N3CCC(C(=O)Nc4cc(S(C)(=O)=O)ccc4Cl)CC3)c2c1C	inconclusive: 7.38 µM [inhibitor, partial curve, poor fit]	
Cc1ccc(CNC(=O)C2CCCN(S(=O)(=O)c3ccc(F)cc3)C2)cc1 (stereo unspecified)	inconclusive: 13.1 µM [inhibitor, single point]	
Cc1ccc(-n2nc3c(=O)n(CCCC(=O)NCCc4ccccc4C)nc(C)c3c2C)cc1	inconclusive: 0.928 µM [inhibitor, full curve, poor fit]	
COc1ccc(CN(C2CCCC2)S(=O)(=O)c2ccc(-n3cnnn3)cc2)cc1OC	inconclusive: 0.657 µM [inhibitor, full curve, poor fit]	
O=C1C2CCCN2C(c2ccccc2F)N1c1ccc(Cl)cc1 (stereo unspecified)	inconclusive: 7.38 µM [inhibitor, partial curve, poor fit]	
COc1ccc(NC(=O)/C(=C/c2ccc3c(c2)OCO3)NC(C)=O)cc1		inactive: 460%
COc1cc2nc(CN3CCN(C(c4ccccc4)c4ccccc4)CC3)[nH]c(=O)c2cc1OC	inconclusive: 11.7 µM [inhibitor, partial curve, poor fit]	
O=C(NCCCN1CCOCC1)c1cc2nc(-c3ccco3)cc(C(F)(F)F)n2n1	inconclusive: 13.1 µM [inhibitor, single point]	
O=C1c2cccnc2Oc2ccc(Cl)cc2N1Cc1ccc(F)cc1	inconclusive: 13.1 µM [inhibitor, single point]	
COc1ccc(C2CC(c3cccs3)=NN2C(=O)COC(=O)C2CCCCC2)cc1OC (stereo unspecified)	inconclusive: 2.94 µM [inhibitor, partial curve]	
O=C(Nc1ccccc1F)c1cc(S(=O)(=O)N2CCOCC2)ccc1N1CCOCC1	inconclusive: 7.38 µM [inhibitor, partial curve]	
CCCNC(=O)C1CNc2ccccc2O1 (stereo unspecified)		inactive: 0%
Cc1ccc(N(C(=O)Cn2nnc(-c3cccs3)n2)C(C(=O)NC2CCCC2)c2ccncc2)cc1 (stereo unspecified)		inactive: -3.77%
Cc1cccc(C(C)C)c1NC(=O)COC(=O)CN1C(=O)C2CC=CCC2C1=O (stereo unspecified)		inactive: 24.5%
O=C(NCc1ccccc1)C1=C[C@H](c2coc3ccccc3c2=O)C[C@H](OCCCCO)O1	active: 10.4 µM	
CCc1cccc(CC)c1-n1c(SCC(=O)c2c(N)n(C)c(=O)n(C)c2=O)nnc1-c1cccnc1		inactive: 44%
Cc1occc(=O)c1OC(=O)Nc1ccc(Cl)c(Cl)c1	inconclusive: 16.5 µM [inhibitor, partial curve, poor fit]	
C[C@@H]1C[C@H]2[C@@H]3C[C@H](F)C4=CC(=O)C=C[C@]4(C)[C@@]3(Cl)[C@@H](O)C[C@]2(C)[C@H]1C(=O)COC(=O)C(C)(C)C		inactive: 0.991%
COc1cc(NC(=O)c2cc(C(C)C)on2)cc(OC)c1OC	inconclusive: 9.28 µM [inhibitor, partial curve, poor fit]	
CC(=O)Nc1ccc(S(=O)(=O)N2CCSC2c2ccco2)cc1 (stereo unspecified)	inconclusive: 18.5 µM [inhibitor, single point]	

Part of the list above in order of count of non-hydrogen atoms, falling:
SMILES	Potency	activity change, negative = inhibition
CCOC(=O)N1CCC(n2c(SCC(=O)NCc3ccco3)nc3ccsc3c2=O)CC1	inconclusive: 0.522 µM [inhibitor, full curve, poor fit]	
O=C1C2CCCN2C(c2ccccc2F)N1c1ccc(Cl)cc1 (stereo unspecified)	inconclusive: 7.38 µM [inhibitor, partial curve, poor fit]	
Cc1occc(=O)c1OC(=O)Nc1ccc(Cl)c(Cl)c1	inconclusive: 16.5 µM [inhibitor, partial curve, poor fit]	
